Source: publication PMC10833457
These are yes or no findings as the source states them, for the method shown. Binding seen in cells or lysates may run through a third protein. Some results given as binding are weak or reduced against the parent protein; the word gives no strength.

Molecular target: T1, YTHDF1 (mouse (endogenous in mPFC)), P59326
T1 chain: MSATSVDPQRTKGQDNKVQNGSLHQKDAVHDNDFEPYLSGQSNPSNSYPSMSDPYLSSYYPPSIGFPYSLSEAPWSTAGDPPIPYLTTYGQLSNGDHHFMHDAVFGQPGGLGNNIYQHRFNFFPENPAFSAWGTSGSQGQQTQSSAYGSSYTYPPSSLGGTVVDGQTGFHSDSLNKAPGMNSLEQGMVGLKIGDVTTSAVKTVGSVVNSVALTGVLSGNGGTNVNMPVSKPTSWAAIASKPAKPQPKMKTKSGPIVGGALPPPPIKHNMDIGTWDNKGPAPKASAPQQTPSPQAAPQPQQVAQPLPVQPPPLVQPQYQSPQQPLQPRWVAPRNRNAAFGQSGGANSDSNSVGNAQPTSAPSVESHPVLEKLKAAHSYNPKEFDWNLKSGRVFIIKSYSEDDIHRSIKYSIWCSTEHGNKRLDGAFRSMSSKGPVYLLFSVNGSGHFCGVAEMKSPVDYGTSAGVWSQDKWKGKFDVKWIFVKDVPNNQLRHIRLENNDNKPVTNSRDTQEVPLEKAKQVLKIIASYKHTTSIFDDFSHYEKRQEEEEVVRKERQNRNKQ
Test: co-IP; mPFC homogenates from 22-month-old mice; immunoprecipitation with an anti-YTHDF1 or an anti-YTHDF2 antibody, detection with anti-YTHDF1 and anti-YTHDF2 antibodies
Settings: remark: other sources report otherwise

B1: YTHDF2, Q91YT7 1-579 (protein)
chain: MSASSLLEQRPKGQGNKVQNGSVHQKDGLNDDDFEPYLSPQARPNNAYTAMSDSYLPSYYSPSIGFSYSLGEAAWSTGGDTAMPYLTSYGQLSNGEPHFLPDAMFGQPGALGSTPFLGQHGFNFFPSGIDFSAWGNNSSQGQSTQSSGYSSNYAYAPSSLGGAMIDGQSAFANETLNKAPGMNTIDQGMAALKLGSTEVASSVPKVVGSAVGSGSITSNIVASSSLPPATIAPPKPASWADIASKPAKQQPKLKTKNGIAGSSLPPPPIKHNMDIGTWDNKGPVAKAPSQALVQNIGQPTQGSPQPVGQQANNSPPVAQASVGQQTQPLPPPPPQPAQLSVQQQAAQPTRWVAPRNRGSGFGHNGVDGNGVGQSQAGSGSTPSEPHPVLEKLRSINNYNPKDFDWNLKHGRVFIIKSYSEDDIHRSIKYNIWCSTEHGNKRLDAAYRSMNGKGPVYLLFSVNGSGHFCGVAEMKSAVDYNTCAGVWSQDKWKGRFDVRWIFVKDVPNSQLRHIRLENNENKPVTNSRDTQEVPLEKAKQVLKIIASYKHTTSIFDDFSHYEKRQEEEESVKKERQGRGK
binding: binds
